Assay results from US10563263B2, “Genetic polymorphisms associated with statin response and cardiovascular diseases, methods of detection and uses thereof” (CELERA CORPORATION, priority 2010, dated 2020).
The source gives many values for each of these; only a part stands here.

System: CVD (CHD or stroke)
Test: Meta-analysis of CARE and WOSCOPS combined, synergy index, CVD endpoint
Format: in vivo, human
Excerpt: Tables 4-5 provide meta-analyses of CARE and WOSCOPS combined (2nd section of each table) for two endpoints (CHD and CVD) and three genetic models (dominant, recessive, and additive), as well as logistic regression analyses of CARE (3rd section of each table) and WOSCOPS (4th section of each table) individually.
Tables 12 and 17 provide results of meta-analysis of the CARE and WOSCOPS sample sets combined by direct genotyping and by imputing genotypes.
“P” indicates the p-value, and “P(R)” (or “P.R.”) indicates the p-value random effect. Both of these are p-values corresponding to a statistical test of whether the combined synergy index is equal to one but use different assumptions to derive the p-value. “P” is calculated using a fixed effects model, and “P(R)” is calculated using a random effects model.
“OR” indicates the odds ratio (synergy index) calculated from a fixed effects model, and “OR(R)” (or “OR.R.”) indicates the odds ratio (synergy index) calculated from a random effects model.

[1] = rs6774353 allele A GENOTYPIC Imputed
[2] = rs6781670 allele C GENOTYPIC Imputed
[3] = rs6786431 allele A GENOTYPIC Imputed
[4] = rs6789091 allele T GENOTYPIC Imputed
[5] = rs6791296 allele T ADDITIVE Imputed
[6] = rs6792662 allele G DOMINANT Imputed
[7] = rs6797574 allele G GENOTYPIC Imputed
[8] = rs6797882 allele G GENOTYPIC Imputed
[9] = rs6805139 allele G DOMINANT Imputed
[10] = rs6806043 allele C ADDITIVE Imputed
[11] = rs6806043 allele C GENOTYPIC Imputed
[12] = rs6850716 allele C GENOTYPIC Imputed
[13] = rs6867153 allele A RECESSIVE Imputed
[14] = rs6871041 allele G DOMINANT Imputed
[15] = rs6888012 allele A RECESSIVE Imputed
[16] = rs6908481 allele C RECESSIVE Imputed
[17] = rs7032231 allele A ADDITIVE Imputed
[18] = rs7067638 allele T DOMINANT Imputed
[19] = rs7077799 allele A DOMINANT Imputed
[20] = rs7082163 allele A ADDITIVE Imputed
[21] = rs7082163 allele A DOMINANT Imputed
[22] = rs7089661 allele C DOMINANT Imputed
[23] = rs7101319 allele C ADDITIVE Imputed
[24] = rs7101319 allele C DOMINANT Imputed
[25] = rs7134262 allele T GENOTYPIC Imputed
[26] = rs7134262 allele T RECESSIVE Imputed
[27] = rs7134671 allele T GENOTYPIC Imputed
[28] = rs7138300 allele C ADDITIVE Imputed
[29] = rs7138300 allele C DOMINANT Imputed
[30] = rs7138300 allele C GENOTYPIC Imputed
[31] = rs7163931 allele G GENOTYPIC Imputed
[32] = rs7163931 allele G RECESSIVE Imputed
[33] = rs7171486 allele G DOMINANT Genotyped
[34] = rs7172611 allele G GENOTYPIC Imputed
[35] = rs7172611 allele G RECESSIVE Imputed
[36] = rs7172689 allele T GENOTYPIC Imputed
[37] = rs7172689 allele T RECESSIVE Imputed
[38] = rs7175701 allele C GENOTYPIC Imputed
[39] = rs7180245 allele A GENOTYPIC Imputed
[40] = rs7180245 allele A RECESSIVE Imputed
[41] = rs7220603 allele A ADDITIVE Genotyped
[42] = rs7282518 allele T ADDITIVE Imputed
[43] = rs7283476 allele T ADDITIVE Imputed
[44] = rs7283476 allele T DOMINANT Imputed
[45] = rs7295817 allele C GENOTYPIC Imputed
[46] = rs7298255 allele A ADDITIVE Imputed
[47] = rs7298255 allele A DOMINANT Imputed
[48] = rs7305832 allele C GENOTYPIC Imputed
[49] = rs7305832 allele C RECESSIVE Imputed
[50] = rs7331467 allele A GENOTYPIC Imputed
[51] = rs7392620 allele C ADDITIVE Imputed
[52] = rs7446891 allele G DOMINANT Imputed
[53] = rs7448641 allele C ADDITIVE Imputed
[54] = rs7448641 allele C DOMINANT Imputed
[55] = rs7484728 allele T GENOTYPIC Imputed
[56] = rs7499402 allele A ADDITIVE Genotyped
[57] = rs7529851 allele A ADDITIVE Imputed
[58] = rs7529851 allele A GENOTYPIC Imputed
[59] = rs7573951 allele G ADDITIVE Imputed
[60] = rs7599198 allele T DOMINANT Imputed
[61] = rs7600050 allele C ADDITIVE Imputed
[62] = rs7607712 allele T ADDITIVE Imputed

## CC[C@H](C)C(=O)O[C@H]1C[C@H](O)C=C2C=C[C@H](C)[C@H](CC[C@@H](O)C[C@@H](O)CC(=O)O)[C@H]21 [Pravastatin, pravastatin]
[1]
  OR: 2.0921
  OR(R): 2.0921
[2]
  OR: 2.0683
  OR(R): 2.0683
[3]
  OR: 2.0503
  OR(R): 2.0503
[4]
  OR: 2.0503
  OR(R): 2.0503
[5]
  OR: 0.6284
  OR(R): 0.6284
[6]
  OR: 1.7002
  OR(R): 1.7002
[7]
  OR: 2.0503
  OR(R): 2.0503
[8]
  OR: 2.0585
  OR(R): 2.0585
[9]
  OR: 1.6957
  OR(R): 1.6957
[10]
  OR: 1.4041
  OR(R): 1.4041
[11]
  OR: 2.1162
  OR(R): 2.1162
[12]
  OR: 3.2642
  OR(R): 3.2642
[13]
  OR: 0.5455
  OR(R): 0.5455
[14]
  OR: 0.6351
  OR(R): 0.6351
[15]
  OR: 0.5455
  OR(R): 0.5455
[16]
  OR: 1.8461
  OR(R): 1.8461
[17]
  OR: 1.2986
  OR(R): 1.3011
[18]
  OR: 1.6722
  OR(R): 1.6722
[19]
  OR: 1.5609
  OR(R): 1.5609
[20]
  OR: 1.6619
  OR(R): 1.6619
[21]
  OR: 1.7473
  OR(R): 1.7473
[22]
  OR: 1.5612
  OR(R): 1.5612
[23]
  OR: 1.6533
  OR(R): 1.6533
[24]
  OR: 1.7359
  OR(R): 1.7359
[25]
  OR: 1.9228
  OR(R): 1.9228
[26]
  OR: 2.1112
  OR(R): 2.0864
[27]
  OR: 1.9952
  OR(R): 1.9952
[28]
  OR: 0.7392
  OR(R): 0.7392
[29]
  OR: 0.6285
  OR(R): 0.6285
[30]
  OR: 0.574
  OR(R): 0.574
[31]
  OR: 3.4509
  OR(R): 3.4509
[32]
  OR: 3.317
  OR(R): 3.317
[33]
  OR: 0.6976
  OR(R): 0.69
[34]
  OR: 3.4591
  OR(R): 3.4591
[35]
  OR: 3.317
  OR(R): 3.317
[36]
  OR: 3.4591
  OR(R): 3.4591
[37]
  OR: 3.317
  OR(R): 3.317
[38]
  OR: 2.9103
  OR(R): 2.9103
[39]
  OR: 3.4591
  OR(R): 3.4591
[40]
  OR: 3.317
  OR(R): 3.317
[41]
  OR: 0.6874
  OR(R): 0.6874
[42]
  OR: 1.6157
  OR(R): 1.6157
[43]
  OR: 0.4528
  OR(R): 0.4555
[44]
  OR: 0.4307
  OR(R): 0.4432
[45]
  OR: 0.5763
  OR(R): 0.5838
[46]
  OR: 0.7441
  OR(R): 0.7441
[47]
  OR: 0.6197
  OR(R): 0.6197
[48]
  OR: 1.9292
  OR(R): 1.9292
[49]
  OR: 2.1109
  OR(R): 2.0804
[50]
  OR: 2.0747
  OR(R): 2.0747
[51]
  OR: 0.7677
  OR(R): 0.7677
[52]
  OR: 0.6712
  OR(R): 0.6712
[53]
  OR: 0.2451
  OR(R): 0.2451
[54]
  OR: 0.2509
  OR(R): 0.2509
[55]
  OR: 2.0019
  OR(R): 2.0019
[56]
  OR: 1.6071
  OR(R): 1.6071
[57]
  OR: 0.7475
  OR(R): 0.7475
[58]
  OR: 0.5463
  OR(R): 0.5463
[59]
  OR: 0.7086
  OR(R): 0.7086
[60]
  OR: 0.5939
  OR(R): 0.5939
[61]
  OR: 1.3671
  OR(R): 1.3671
[62]
  OR: 1.452
  OR(R): 1.452
rs9309988 allele G (A1), DOMINANT, Imputed
  OR: 1.9326
rs9309989 allele C (A1), DOMINANT, Genotyped
  OR: 1.9491
rs9310221 allele A (A1), DOMINANT, Imputed
  OR: 1.86
rs9327555 allele T (A1), DOMINANT, Imputed
  OR: 0.5753
rs9454967 allele G (A1), ADDITIVE, Imputed
  OR: 2.1926
rs9454967 allele G (A1), DOMINANT, Imputed
  OR: 2.4795
rs9471295 allele T (A1), DOMINANT, Imputed
  OR: 1.5391
rs9477007 allele A (A1), ADDITIVE, Imputed
  OR: 1.429
rs9477007 allele A (A1), GENOTYPIC, Imputed
  OR: 2.0759
rs9487279 allele T (A1), DOMINANT, Imputed
  OR: 0.5948
rs9555973 allele G (A1), ADDITIVE, Imputed
  OR: 0.5479
rs9555973 allele G (A1), DOMINANT, Imputed
  OR: 0.5157
rs9557510 allele G (A1), ADDITIVE, Imputed
  OR: 1.6102
rs9557510 allele G (A1), DOMINANT, Imputed
  OR: 1.7706
rs9560584 allele T (A1), DOMINANT, Imputed
  OR: 0.512
rs9588770 allele T (A1), DOMINANT, Imputed
  OR: 0.5187
rs9588848 allele C (A1), ADDITIVE, Imputed
  OR: 0.5369
rs9588848 allele C (A1), DOMINANT, Imputed
  OR: 0.5009
rs9812206 allele G (A1), ADDITIVE, Imputed
  OR: 0.4469
rs9812206 allele G (A1), DOMINANT, Imputed
  OR: 0.4369
rs9813552 allele G (A1), ADDITIVE, Imputed
  OR: 0.4493
rs9813552 allele G (A1), DOMINANT, Imputed
  OR: 0.4387
rs9815037 allele T (A1), ADDITIVE, Imputed
  OR: 0.4461
rs9815037 allele T (A1), DOMINANT, Imputed
  OR: 0.4354
rs9825349 allele A (A1), ADDITIVE, Imputed
  OR: 0.4461
rs9825349 allele A (A1), DOMINANT, Imputed
  OR: 0.4354
rs9834217 allele T (A1), ADDITIVE, Imputed
  OR: 0.4466
rs9834217 allele T (A1), DOMINANT, Imputed
  OR: 0.4359
rs9840460 allele T (A1), ADDITIVE, Imputed
  OR: 0.4461
rs9840460 allele T (A1), DOMINANT, Imputed
  OR: 0.4354
rs9840756 allele A (A1), ADDITIVE, Imputed
  OR: 0.4458
rs9840756 allele A (A1), DOMINANT, Imputed
  OR: 0.435
rs9844801 allele C (A1), DOMINANT, Imputed
  OR: 1.9326
rs9869187 allele C (A1), ADDITIVE, Imputed
  OR: 0.4651
rs9869187 allele C (A1), DOMINANT, Imputed
  OR: 0.4704
rs9872327 allele T (A1), DOMINANT, Imputed
  OR: 1.9326
rs9881685 allele A (A1), ADDITIVE, Imputed
  OR: 0.4438
rs9881685 allele A (A1), DOMINANT, Imputed
  OR: 0.4332
rs9909499 allele C (A1), DOMINANT, Imputed
  OR: 1.4669
rs9911847 allele G (A1), DOMINANT, Imputed
  OR: 0.6755
rs9946886 allele G (A1), RECESSIVE, Imputed
  OR: 0.3084
rs9958823 allele A (A1), ADDITIVE, Imputed
  OR: 1.5292
rs9965248 allele T (A1), ADDITIVE, Imputed
  OR: 1.4965
